assay: Decomposition and acid generation amount by photoirradiation (titration); type: physicochemical; settings: 0.02-mmol/g acetonitrile solution, 365 nm, 0.4 mW/cm^2 for 1200 seconds, exposure amount 480 mJ/cm^2

First: CCCCOc1ccc([S+](CCCC)CCCC)c2c(OCCCC)cccc12.O=S(=O)([N-]S(=O)(=O)C(F)(F)C(F)(F)C(F)(F)C(F)(F)F)C(F)(F)C(F)(F)C(F)(F)C(F)(F)F [Ex. 8, 1-(4,8-di-n-butoxynaphthyl)di-n-butylsulfonium di(1,1,2,2,3,3,4,4,4-nonafluorobutanesulfone)imide]
Second: CCCCOc1ccc2c(OCCCC)ccc([S+](CCCC)CCCC)c2c1.O=S(=O)([N-]S(=O)(=O)C(F)(F)C(F)(F)C(F)(F)C(F)(F)F)C(F)(F)C(F)(F)C(F)(F)C(F)(F)F [Ex. 3, 1-(4,7-di-n-butoxynaphthyl)di-n-butylsulfonium di(1,1,2,2,3,3,4,4,4-nonafluorobutanesulfone)imide]
The Acid generation rate of the first is lower: 17% for the first, 19% for the second.

Going from `CCCCOc1ccc2ccc(OCCCC)c([S+](c3ccccc3)c3ccccc3)c2c1.O=S(=O)([N-]S(=O)(=O)C(F)(F)C(F)(F)C(F)(F)C(F)(F)F)C(F)(F)C(F)(F)C(F)(F)C(F)(F)F` [C. Ex. 5, 1-(2,7-di-n-butoxynaphthyl)diphenylsulfonium di(1,1,2,2,3,3,4,4,4-nonafluorobutanesulfone)imide, reference compound] to `CCCCOc1ccc2ccc(OCCCC)c([S+](C)C)c2c1.O=S(=O)([N-]S(=O)(=O)C(F)(F)C(F)(F)C(F)(F)C(F)(F)F)C(F)(F)C(F)(F)C(F)(F)C(F)(F)F` [Ex. 2, 1-(2,7-di-n-butoxynaphthyl)dimethylsulfonium di(1,1,2,2,3,3,4,4,4-nonafluorobutanesulfone)imide], the Acid generation rate rises from 1% to 6%.

First: CCCCCCCCOc1ccc2ccc(OCCCCCCCC)c([S+](C)C)c2c1.O=S(=O)([N-]S(=O)(=O)C(F)(F)F)C(F)(F)F [Ex. 11, 1-(2,7-di-n-octoxynaphthyl)dimethylsulfonium di(1,1,1-trifluoromethanesulfone)imide]
Second: CCCCOc1ccc2ccc(OCCCC)c([S+](CCCC)CCCC)c2c1.O=S(=O)([N-]S(=O)(=O)C(F)(F)F)C(F)(F)F [Ex. 9, 1-(2,7-di-n-butoxynaphthyl)di-n-butylsulfonium di(1,1,1-trifluoromethanesulfone)imide]
The Acid generation rate of the first is lower: 4% for the first, 9% for the second.

Going from `CCCCOc1ccc2ccc(OCCCC)c([S+](C(C)C)C(C)C)c2c1.O=S(=O)([N-]S(=O)(=O)C(F)(F)C(F)(F)C(F)(F)C(F)(F)F)C(F)(F)C(F)(F)C(F)(F)C(F)(F)F` [Ex. 13, 1-(2,7-di-n-butoxynaphthyl)diisopropyl sulfonium di(1,1,2,2,3,3,4,4,4-nonafluorobutanesulfone)imide] to `CCCCOc1ccc2ccc(OCCCC)c([S+](CCCC)CCCC)c2c1.O=S(=O)([N-]S(=O)(=O)C(F)(F)C(F)(F)C(F)(F)C(F)(F)F)C(F)(F)C(F)(F)C(F)(F)C(F)(F)F` [Ex. 1, 1-(2,7-di-n-butoxynaphthyl)di-n-butylsulfonium di(1,1,2,2,3,3,4,4,4-nonafluorobutanesulfone)imide], the Acid generation rate falls from 15% to 12%.

Going from `CCCCOc1ccc2c(OCCCC)ccc([S+](CCCC)CCCC)c2c1.O=S(=O)([N-]S(=O)(=O)C(F)(F)F)C(F)(F)F` [Ex. 10, 1-(4,7-di-n-butoxynaphthyl)di-n-butylsulfonium di(1,1,1-trifluoromethanesulfone)imide] to `CCCCOc1ccc([S+](CCCC)CCCC)c2c(OCCCC)cccc12.O=S(=O)([N-]S(=O)(=O)C(F)(F)F)C(F)(F)F` [Ex. 7, 1-(4,8-di-n-butoxynaphthyl)di-n-butylsulfonium di(1,1,1-trifluoromethanesulfone)imide], the Acid generation rate falls from 17% to 16%.

First: CCCCOc1cc(OCCCC)c2ccccc2c1[S+](CCCC)CCCC.O=S(=O)([N-]S(=O)(=O)C(F)(F)C(F)(F)C(F)(F)C(F)(F)F)C(F)(F)C(F)(F)C(F)(F)C(F)(F)F [Ex. 5, 1-(2,4-di-n-butoxynaphthyl)di-n-butylsulfonium di(1,1,2,2,3,3,4,4,4-nonafluorobutanesulfone)imide]
Second: CCCCOc1ccc2ccc(OCCCC)c([S+](CCCC)CCCC)c2c1.O=S(=O)([O-])C(F)(F)C(F)(F)C(F)(F)C(F)(F)F [Ex. 6, 1-(2,7-di-n-butoxynaphthyl)di-n-butylsulfonium 1,1,2,2,3,3,4,4,4-nonafluorobutanesulfonate]
The Acid generation rate of the first is lower: 3% for the first, 12% for the second.

Going from `O=S1(=O)[N-]S(=O)(=O)C(F)(F)C(F)(F)C1(F)F.c1ccc([S+](c2ccccc2)c2ccccc2)cc1` [C. Ex. 1, triphenylsulfonium 1,1,2,2,3,3-hexafluorotrimethylene imide, reference compound] to `COc1ccc2ccc(OC)c([S+](c3ccccc3)c3ccccc3)c2c1.O=S1(=O)[N-]S(=O)(=O)C(F)(F)C(F)(F)C1(F)F` [C. Ex. 2, 1-(2,7-dimethoxynaphthyl)diphenylsulfonium 1,1,2,2,3,3-hexafluorotrimethylene sulfone imide, reference compound], the Acid generation rate falls from 4% to 0%.

Going from `O=S(=O)([N-]S(=O)(=O)C(F)(F)C(F)(F)C(F)(F)C(F)(F)F)C(F)(F)C(F)(F)C(F)(F)C(F)(F)F.c1ccc([S+](c2ccccc2)c2ccccc2)cc1` [C. Ex. 4, triphenylsulfonium di(1,1,2,2,3,3,4,4,4-nonafluorobutanesulfone)imide, reference compound] to `CCCCOc1ccc2ccc(OCCCC)c([S+](C(C)C)C(C)C)c2c1.O=S(=O)([N-]S(=O)(=O)C(F)(F)F)C(F)(F)F` [Ex. 12, 1-(2,7-di-n-butoxynaphthyl)diisopropyl sulfonium di(1,1,1-trifluoromethanesulfone)imide], the Acid generation rate rises from 2% to 25%.

First: CCCCOc1ccc2ccc(OCCCC)c([S+](CCCC)CCCC)c2c1.F[P-](F)(F)(F)(F)F [C. Ex. 3, 1-(2,7-di-n-butoxynaphthyl)di-n-butylsulfonium hexafluorophosphate, reference compound]
Second: CCCCOc1ccc2ccc(OCCCC)c([S+](CCCC)CCCC)c2c1.O=S1(=O)[N-]S(=O)(=O)C(F)(F)C(F)(F)C1(F)F [Ex. 4, 1-(2,7-di-n-butoxynaphthyl)di-n-butylsulfonium 1,1,2,2,3,3-hexafluorotrimethylene sulfone imide]
The Acid generation rate of the first is higher: 15% for the first, 12% for the second.
